Results reported in article doi:10.1101/704106.
These are yes or no findings as the source states them, for the method shown. Some binding calls cover weakened binding; strength is not graded here.

Tests used:
Experiment in all cases: HDX-MS
[1] = target: R649W PI3Kα (p110α/p85α-R649W heterodimer) (UniProt P42336)
[2] = target: WT PI3Kα (p110α/p85α heterodimer) (UniProt P42336)
[3] = target: p110α/p85α-R590* heterodimer (UniProt P42336)

Measured: binding

PDGFR bis-phosphorylated pY peptide (residues 735-767, pY740 and pY751) (from UniProt P09619 735-767)
binds: all assays above
